# Laboratory results from the supplement of paper PMC12067093, “Discovery and optimisation of a covalent ligand for TRIM25 and its application to targeted protein ubiquitination” (Chemical Science, 2025).
# Protein sequences, listed by entry. Tags and fused reporters are not part of them. Lines headed by an entry give the natural chain unless they say otherwise; changes in a name come on top.
# UniProt Q9BQG0: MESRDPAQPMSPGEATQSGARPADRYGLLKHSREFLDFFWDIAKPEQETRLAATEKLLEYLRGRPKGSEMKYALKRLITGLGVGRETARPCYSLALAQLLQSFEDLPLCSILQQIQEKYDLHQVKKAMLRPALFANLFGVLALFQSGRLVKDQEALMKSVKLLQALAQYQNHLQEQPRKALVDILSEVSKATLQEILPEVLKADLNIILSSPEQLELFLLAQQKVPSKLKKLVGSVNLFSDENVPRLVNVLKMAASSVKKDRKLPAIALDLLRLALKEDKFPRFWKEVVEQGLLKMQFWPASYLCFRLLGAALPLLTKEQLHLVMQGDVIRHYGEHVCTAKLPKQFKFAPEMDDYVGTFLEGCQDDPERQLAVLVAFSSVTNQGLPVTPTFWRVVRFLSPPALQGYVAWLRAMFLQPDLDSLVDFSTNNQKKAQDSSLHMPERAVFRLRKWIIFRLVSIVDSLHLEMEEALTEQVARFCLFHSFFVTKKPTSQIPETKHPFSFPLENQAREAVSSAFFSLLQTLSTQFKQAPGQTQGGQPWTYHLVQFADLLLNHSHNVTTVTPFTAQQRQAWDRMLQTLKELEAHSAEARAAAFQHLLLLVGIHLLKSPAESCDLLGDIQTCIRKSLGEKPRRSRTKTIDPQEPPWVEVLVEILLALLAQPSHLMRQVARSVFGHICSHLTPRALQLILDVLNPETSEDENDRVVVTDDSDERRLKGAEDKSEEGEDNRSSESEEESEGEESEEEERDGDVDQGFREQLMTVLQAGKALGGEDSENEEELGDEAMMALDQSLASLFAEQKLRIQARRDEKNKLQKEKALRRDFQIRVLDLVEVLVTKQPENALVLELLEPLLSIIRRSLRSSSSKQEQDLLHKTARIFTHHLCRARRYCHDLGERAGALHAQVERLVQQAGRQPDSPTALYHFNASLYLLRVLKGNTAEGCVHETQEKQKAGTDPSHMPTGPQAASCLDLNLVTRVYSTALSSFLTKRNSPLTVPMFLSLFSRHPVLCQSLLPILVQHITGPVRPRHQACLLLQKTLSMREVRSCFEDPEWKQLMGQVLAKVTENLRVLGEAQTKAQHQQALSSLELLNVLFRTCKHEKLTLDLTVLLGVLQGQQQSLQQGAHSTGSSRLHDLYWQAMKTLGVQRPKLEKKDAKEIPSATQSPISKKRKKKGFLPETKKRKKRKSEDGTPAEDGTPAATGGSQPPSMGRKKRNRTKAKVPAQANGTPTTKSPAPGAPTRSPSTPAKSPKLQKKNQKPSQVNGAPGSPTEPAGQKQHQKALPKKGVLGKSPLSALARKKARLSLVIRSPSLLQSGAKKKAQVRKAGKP
# UniProt Q9NVV4: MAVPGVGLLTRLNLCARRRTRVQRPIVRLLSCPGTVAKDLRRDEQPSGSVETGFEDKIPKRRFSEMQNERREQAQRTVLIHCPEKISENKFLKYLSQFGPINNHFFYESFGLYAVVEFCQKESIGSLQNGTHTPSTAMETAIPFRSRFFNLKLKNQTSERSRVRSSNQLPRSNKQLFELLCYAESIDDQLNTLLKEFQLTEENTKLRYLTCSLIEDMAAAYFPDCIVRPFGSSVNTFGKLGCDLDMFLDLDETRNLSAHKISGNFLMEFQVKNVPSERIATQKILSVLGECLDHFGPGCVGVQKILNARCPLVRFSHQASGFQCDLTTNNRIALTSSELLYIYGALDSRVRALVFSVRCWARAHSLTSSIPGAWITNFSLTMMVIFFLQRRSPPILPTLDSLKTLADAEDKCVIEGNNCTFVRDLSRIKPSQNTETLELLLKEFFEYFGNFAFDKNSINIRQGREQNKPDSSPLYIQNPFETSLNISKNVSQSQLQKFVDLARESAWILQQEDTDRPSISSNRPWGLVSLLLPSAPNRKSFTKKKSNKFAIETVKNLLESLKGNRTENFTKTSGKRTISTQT
# UniProt P35579, whole entry, looked up: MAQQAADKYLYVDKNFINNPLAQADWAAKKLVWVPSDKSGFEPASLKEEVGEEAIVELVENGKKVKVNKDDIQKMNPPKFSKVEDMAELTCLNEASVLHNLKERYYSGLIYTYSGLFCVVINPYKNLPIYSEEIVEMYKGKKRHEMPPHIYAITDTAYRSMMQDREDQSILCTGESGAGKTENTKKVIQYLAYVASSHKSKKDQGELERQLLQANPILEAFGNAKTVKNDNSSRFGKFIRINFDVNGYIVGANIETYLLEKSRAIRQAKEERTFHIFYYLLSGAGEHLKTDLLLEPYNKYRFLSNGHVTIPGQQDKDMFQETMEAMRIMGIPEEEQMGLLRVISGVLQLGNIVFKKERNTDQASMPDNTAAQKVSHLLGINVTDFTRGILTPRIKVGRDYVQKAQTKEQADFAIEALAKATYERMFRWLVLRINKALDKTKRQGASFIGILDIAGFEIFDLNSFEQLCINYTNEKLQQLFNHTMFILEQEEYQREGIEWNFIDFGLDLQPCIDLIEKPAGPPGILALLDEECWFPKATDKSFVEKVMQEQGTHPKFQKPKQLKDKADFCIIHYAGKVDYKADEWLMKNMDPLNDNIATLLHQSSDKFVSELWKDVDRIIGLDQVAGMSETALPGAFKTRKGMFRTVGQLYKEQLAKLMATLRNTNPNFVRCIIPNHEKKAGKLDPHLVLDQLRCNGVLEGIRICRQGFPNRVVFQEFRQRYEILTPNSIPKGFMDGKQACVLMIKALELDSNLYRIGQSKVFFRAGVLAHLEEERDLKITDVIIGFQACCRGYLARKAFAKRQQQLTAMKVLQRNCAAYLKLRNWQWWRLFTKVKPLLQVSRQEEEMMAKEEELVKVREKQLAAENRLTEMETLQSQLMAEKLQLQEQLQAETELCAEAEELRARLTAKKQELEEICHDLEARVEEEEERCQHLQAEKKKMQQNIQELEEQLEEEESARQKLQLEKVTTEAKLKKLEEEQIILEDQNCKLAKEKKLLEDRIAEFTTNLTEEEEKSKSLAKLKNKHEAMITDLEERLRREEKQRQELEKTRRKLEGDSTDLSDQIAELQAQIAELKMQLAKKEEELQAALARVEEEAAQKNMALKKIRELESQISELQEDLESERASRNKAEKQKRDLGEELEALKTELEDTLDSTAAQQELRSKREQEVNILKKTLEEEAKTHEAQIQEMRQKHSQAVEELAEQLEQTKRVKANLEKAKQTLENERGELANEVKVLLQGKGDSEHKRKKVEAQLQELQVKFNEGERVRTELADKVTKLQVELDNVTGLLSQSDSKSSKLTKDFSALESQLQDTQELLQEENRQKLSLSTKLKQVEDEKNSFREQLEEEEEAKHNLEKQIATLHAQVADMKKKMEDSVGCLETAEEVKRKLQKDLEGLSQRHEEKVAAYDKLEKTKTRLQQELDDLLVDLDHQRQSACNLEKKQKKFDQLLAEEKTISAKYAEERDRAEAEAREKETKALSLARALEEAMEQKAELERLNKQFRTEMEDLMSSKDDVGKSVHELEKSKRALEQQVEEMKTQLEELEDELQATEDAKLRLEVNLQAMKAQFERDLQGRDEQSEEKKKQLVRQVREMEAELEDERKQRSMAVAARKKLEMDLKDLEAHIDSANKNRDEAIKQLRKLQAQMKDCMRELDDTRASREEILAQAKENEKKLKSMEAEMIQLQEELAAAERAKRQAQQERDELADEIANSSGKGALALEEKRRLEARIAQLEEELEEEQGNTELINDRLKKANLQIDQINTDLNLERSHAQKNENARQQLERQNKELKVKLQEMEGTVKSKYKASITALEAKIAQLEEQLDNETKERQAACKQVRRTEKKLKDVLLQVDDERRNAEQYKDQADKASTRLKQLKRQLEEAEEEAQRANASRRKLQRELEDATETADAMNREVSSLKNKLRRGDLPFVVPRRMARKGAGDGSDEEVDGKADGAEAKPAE
# UniProt P42285: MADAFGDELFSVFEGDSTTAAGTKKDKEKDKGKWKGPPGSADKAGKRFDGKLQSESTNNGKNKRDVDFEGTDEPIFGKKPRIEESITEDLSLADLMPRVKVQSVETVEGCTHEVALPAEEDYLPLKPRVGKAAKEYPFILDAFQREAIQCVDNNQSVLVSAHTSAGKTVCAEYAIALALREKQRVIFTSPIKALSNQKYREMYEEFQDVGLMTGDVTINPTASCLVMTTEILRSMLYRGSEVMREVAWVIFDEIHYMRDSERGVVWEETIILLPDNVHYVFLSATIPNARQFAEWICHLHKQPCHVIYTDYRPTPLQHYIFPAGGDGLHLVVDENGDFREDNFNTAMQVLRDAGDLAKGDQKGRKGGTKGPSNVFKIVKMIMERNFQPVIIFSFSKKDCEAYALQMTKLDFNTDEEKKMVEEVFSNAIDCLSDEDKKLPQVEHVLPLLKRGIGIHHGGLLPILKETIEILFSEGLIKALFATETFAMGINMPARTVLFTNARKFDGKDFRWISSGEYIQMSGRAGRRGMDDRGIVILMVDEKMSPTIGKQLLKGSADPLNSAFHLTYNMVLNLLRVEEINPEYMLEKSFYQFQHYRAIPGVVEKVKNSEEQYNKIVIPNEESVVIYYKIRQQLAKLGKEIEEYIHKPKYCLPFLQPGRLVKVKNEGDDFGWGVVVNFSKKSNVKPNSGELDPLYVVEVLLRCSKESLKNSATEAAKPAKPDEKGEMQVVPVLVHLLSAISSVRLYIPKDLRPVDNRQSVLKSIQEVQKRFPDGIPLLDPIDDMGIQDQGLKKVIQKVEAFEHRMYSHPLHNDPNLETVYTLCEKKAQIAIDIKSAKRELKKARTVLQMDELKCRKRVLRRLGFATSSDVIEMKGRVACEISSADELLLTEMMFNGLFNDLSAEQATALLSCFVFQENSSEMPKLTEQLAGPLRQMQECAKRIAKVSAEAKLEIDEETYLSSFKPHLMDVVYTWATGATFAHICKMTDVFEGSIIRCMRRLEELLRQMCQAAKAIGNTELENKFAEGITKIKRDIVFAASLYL
# UniProt P11586, whole entry, looked up: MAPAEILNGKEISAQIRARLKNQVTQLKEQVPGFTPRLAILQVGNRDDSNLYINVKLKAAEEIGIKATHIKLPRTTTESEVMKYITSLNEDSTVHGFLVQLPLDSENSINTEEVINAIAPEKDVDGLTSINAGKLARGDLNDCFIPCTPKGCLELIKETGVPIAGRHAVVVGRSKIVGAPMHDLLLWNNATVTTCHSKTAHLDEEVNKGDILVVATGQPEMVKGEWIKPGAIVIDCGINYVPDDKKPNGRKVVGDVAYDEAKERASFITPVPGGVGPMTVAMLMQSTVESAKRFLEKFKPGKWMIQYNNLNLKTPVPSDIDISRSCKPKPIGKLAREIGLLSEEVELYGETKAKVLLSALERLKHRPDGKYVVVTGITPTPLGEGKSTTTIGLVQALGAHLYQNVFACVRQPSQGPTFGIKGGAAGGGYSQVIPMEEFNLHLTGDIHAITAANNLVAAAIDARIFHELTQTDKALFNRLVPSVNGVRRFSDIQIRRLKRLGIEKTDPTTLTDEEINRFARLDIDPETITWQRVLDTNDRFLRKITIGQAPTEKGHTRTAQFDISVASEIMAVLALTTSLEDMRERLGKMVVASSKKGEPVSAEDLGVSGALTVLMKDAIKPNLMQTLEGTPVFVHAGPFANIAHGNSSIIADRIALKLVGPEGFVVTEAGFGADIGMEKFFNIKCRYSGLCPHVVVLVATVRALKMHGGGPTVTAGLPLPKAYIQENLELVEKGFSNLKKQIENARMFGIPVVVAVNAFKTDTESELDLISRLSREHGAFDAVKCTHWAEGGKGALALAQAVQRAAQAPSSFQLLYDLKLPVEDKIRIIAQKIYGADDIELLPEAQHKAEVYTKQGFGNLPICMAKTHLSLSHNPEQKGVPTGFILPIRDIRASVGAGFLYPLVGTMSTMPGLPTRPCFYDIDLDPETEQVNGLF
# UniProt P58546, whole entry, looked up: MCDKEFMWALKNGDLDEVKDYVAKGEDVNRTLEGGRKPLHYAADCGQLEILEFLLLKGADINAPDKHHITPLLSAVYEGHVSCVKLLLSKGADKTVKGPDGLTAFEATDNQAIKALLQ
# UniProt P60660, whole entry, looked up: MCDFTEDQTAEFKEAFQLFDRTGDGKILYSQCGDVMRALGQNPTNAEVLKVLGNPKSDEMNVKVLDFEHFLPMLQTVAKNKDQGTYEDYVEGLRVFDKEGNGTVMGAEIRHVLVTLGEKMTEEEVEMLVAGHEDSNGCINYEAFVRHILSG
# UniProt Q13203: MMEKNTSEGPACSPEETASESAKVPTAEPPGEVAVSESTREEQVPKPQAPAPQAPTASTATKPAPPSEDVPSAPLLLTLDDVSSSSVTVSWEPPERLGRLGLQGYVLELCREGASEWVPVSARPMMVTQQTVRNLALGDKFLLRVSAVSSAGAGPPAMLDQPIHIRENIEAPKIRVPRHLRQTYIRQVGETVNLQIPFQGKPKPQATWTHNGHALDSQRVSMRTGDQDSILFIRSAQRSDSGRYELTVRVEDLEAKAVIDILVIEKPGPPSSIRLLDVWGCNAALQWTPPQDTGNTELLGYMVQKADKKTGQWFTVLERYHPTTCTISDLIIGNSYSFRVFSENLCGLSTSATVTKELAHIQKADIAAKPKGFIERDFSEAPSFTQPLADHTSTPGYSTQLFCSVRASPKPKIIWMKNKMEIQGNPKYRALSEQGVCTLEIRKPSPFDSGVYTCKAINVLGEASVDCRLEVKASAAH
# This is one part of the list.
# Compound: Cc1cc(ccc1-c1ccccc1)C(=O)N1CCCN(CC1)C(=O)CCl [compound 10]
# Assay: probe-labelled cysteine peptide fold change vs DMSO (competition) (log2 fold change); higher = less target engagement (more negative = stronger competition)
# Conditions: THP-1, incubation time: 4 h
# 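Further: competitive profiling in live THP-1 cells: cysteine peptides tagged with an iodoacetamide desthiobiotin (IA-DTB) probe, intensity after compound treatment relative to DMSO-treated cells.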
Target,probe-labelled cysteine peptide fold change (10 µM),probe-labelled cysteine peptide fold change (50 µM)
MTM1_Q13496_444_NHTDADRSPIFLQFIDCVWQMSK (UniProt Q13496),0.108,0.0969
MYBBP1A_Q9BQG0_678_SVFGHICSHLTPR (UniProt Q9BQG0),0.192,0.148
MYCBP2_O75592_2569+2570_DINSCCPQEATMQEQDMPFLR (UniProt O75592),-0.467,-0.7
MX2_P20592_407_CGADIPSQEADK (UniProt P20592),-0.1,0.0329
MSL3P1_P0C860_283_SSPHTANCDR (UniProt P0C860),-0.254,-0.68
MTR_Q99707_798_NIVGVVLGCNNFR (UniProt Q99707),0.00546,-0.26
MTHFSD_Q2M296_184_ETPVVTIVHDCQVVDIPEELVEEHDITVDYILTPTR (UniProt Q2M296),0.15,0.695
MTPAP_Q9NVV4_82_TVLIHCPEK (UniProt Q9NVV4),0.09,-0.111
MYH9_P35579_790_ITDVIIGFQACCR (UniProt P35579),-0.125,-0.23
MTA2_O94776_261_AMSTLVPQGGPVLCR (UniProt O94776),-0.233,0.122
MTA2_O94776_209_ALDCSSSIR (UniProt O94776),0.0887,-0.0822
MTOR_P42345_1498_CLEALGEWGQLHQQCCEK (UniProt P42345),-0.228,-0.264
MTMR14_Q8NCE2_252_YADFTLLSIPYPGCEFFK (UniProt Q8NCE2),-0.048,0.0221
MYCBP2_O75592_3632_VCEHPLSDIVIAGEAAHPLPHTFHR (UniProt O75592),-0.091,0.184
MTMR3_Q13615_473_CPVFLQWLDCVHQLQR (UniProt Q13615),-0.0651,0.044
MRTO4_Q9UKD2_176_RGVVTLLSDYEVCK (UniProt Q9UKD2),-0.0117,0.261
MTREX_P42285_430_MVEEVFSNAIDCLSDEDK (UniProt P42285),0.159,0.292
MTCH1_Q9NZJ7_222_CMVQFVGR (UniProt Q9NZJ7),0.164,-0.0167
MTHFD1L_Q6UB35_906_IDRYTQQGFGNLPICMAK (UniProt Q6UB35),-0.017,-0.37
MSH6_P52701_1158_QAGLLAVMAQMGCYVPAEVCR (UniProt P52701),-0.0653,0.217
MTHFD1L_Q6UB35_906_YTQQGFGNLPICMAK (UniProt Q6UB35),-0.063,-0.0614

Target,probe-labelled cysteine peptide fold change (10 µM),probe-labelled cysteine peptide fold change (50 µM)
MRPS5_P82675_377_GLHVVEIREECGPLPIVVASPR (UniProt P82675),-0.186,-0.0933
MTCH2_Q9Y6C9_79_LCSGVLGTVVHGK (UniProt Q9Y6C9),0.063,-0.00387
MVP_Q14764_515_ALCLLLGPDFFTDVITIETADHAR (UniProt Q14764),0.504,0.821
MTHFD1_P11586_195_IVGAPMHDLLLWNNATVTTCHSK (UniProt P11586),-0.026,-0.278
MTHFD1_P11586_236_GEWIKPGAIVIDCGINYVPDDKKPNGR (UniProt P11586),-0.116,-1.23
MTHFD1L_Q6UB35_828_AGAFDAVPCYHWSVGGK (UniProt Q6UB35),0.136,-0.0934
MSRB2_Q9Y3D2_105_KYCSGTGWPSFSEAHGTSGSDESHTGILR (UniProt Q9Y3D2),0.00846,-0.434
MRPS30_Q9NP92_316_QNCADQIEVVFR (UniProt Q9NP92),0.0297,0.0262
MYCBP2_O75592_3051_AVFASFLWHEGIVHDAMACSSFLK (UniProt O75592),-0.0655,0.0836
MTPN_P58546_45_TLEGGRKPLHYAADCGQLEILEFLLLK (UniProt P58546),-0.208,-0.612
MYD88_Q99836_168_FDAFICYCPSDIQFVQEMIR (UniProt Q99836),0.412,-1.05
MTHFD2_P13995_145_ICNAVSPDK (UniProt P13995),-0.00299,-0.0517
MTRF1L_Q9UGC7_103_LAENEITLCQK (UniProt Q9UGC7),0.121,0.0615
MYB_P10242_374_CMIVHQGTILDNVK (UniProt P10242),0.0649,-0.298
MYH9_P35579_789+790_ITDVIIGFQACCR (UniProt P35579),0.207,0.352
MTHFS_P49914_160_CLQHQEVKPYTLALAFK (UniProt P49914),-0.021,-0.179
MYCBP2_O75592_4578_ELICGACSDVSR (UniProt O75592),0.199,-0.223
MTA1_Q13330_281_AISALVPQGGPVLCRDEMEEWSASEANLFEEALEK (UniProt Q13330),-0.0152,-0.00106
MTHFD1L_Q6UB35_291_LHEADIVVLGSPKPEEIPLTWIQPGTTVLNCSHDFLSGK (UniProt Q6UB35),0.156,0.392
MYCBP2_O75592_4672_QLEGTECPLHVVHPPTGEEFALGCGVCR (UniProt O75592),0.221,-0.025
MYCBP2_O75592_938_FDCELR (UniProt O75592),0.00942,-0.217

Target,probe-labelled cysteine peptide fold change (10 µM),probe-labelled cysteine peptide fold change (50 µM)
MYH9_P35579_172_SMMQDREDQSILCTGESGAGK (UniProt P35579),-0.173,-0.145
MTPAP_Q9NVV4_242_LGCDLDMFLDLDETR (UniProt Q9NVV4),0.0471,0.0502
MTFR1_Q15390_145_ICALENELAALR (UniProt Q15390),0.0366,-0.607
MTMR1_Q13613_438_TSVVVHCSDGWDR (UniProt Q13613),0.391,0.434
MYH9_P35579_1437_QSACNLEK (UniProt P35579),-0.0174,-0.27
MSTO1_Q9BUK6_232_LHFYVEECDYLQGFQILCDLHDGFSGVGAK (UniProt Q9BUK6),0.444,1.33
MYH9_P35579_1379_KMEDSVGCLETAEEVKR (UniProt P35579),0.0672,-0.504
MTA2_O94776_261_AMSTLVPQGGPVLCRDEMEEWSASEAMLFEEALEK (UniProt O94776),-0.0889,-0.0826
MTA3_Q9BTC8_109_CSVALLNETESVLSYLDK (UniProt Q9BTC8),0.791,0.971
MYL9_P24844_109_NAFACFDEEASGFIHEDHLR (UniProt P24844),0.115,0.169
MYBL2_P10244_69_TDQQCQYR (UniProt P10244),0.291,-0.456
MTOR_P42345_1214_YDVLICR (UniProt P42345),0.0717,-0.186
MTMR6_Q9Y217_88_DCHDIYNSLLQLSK (UniProt Q9Y217),0.0931,-0.172
MTHFD1L_Q6UB35_814_AEIDLVCELAK (UniProt Q6UB35),0.102,0.164
MUT_P22033_560_CTVGEITDALK (UniProt P22033),0.0307,0.0797
MTREX_P42285_822_MYSHPLHNDPNLETVYTLCEK (UniProt P42285),0.0593,0.158
MTA2_O94776_126_EDCFFYSLVFDPVQK (UniProt O94776),0.276,0.226
MYH9_P35579_988_KLEEEQIILEDQNCK (UniProt P35579),-0.0561,-0.0225
MTMR10_Q9NXD2_707_SGPLEACYGELGQSR (UniProt Q9NXD2),-0.0765,-0.331
MYD88_Q99836_233_ECDFQTK (UniProt Q99836),-0.0727,-0.614
MYCBP2_O75592_645_IVVYTACNNGSSSVISK (UniProt O75592),0.0185,0.245

Target,probe-labelled cysteine peptide fold change (10 µM),probe-labelled cysteine peptide fold change (50 µM)
MTM1_Q13496_242_CSQPLVGMSGKR (UniProt Q13496),-0.443,-0.623
MUT_P22033_471_IEECAAR (UniProt P22033),-0.147,-0.181
MYCBP2_O75592_3241_DTICELCGESHPYPVTYHMR (UniProt O75592),-0.0846,-0.18
MTREX_P42285_430_KMVEEVFSNAIDCLSDEDK (UniProt P42285),-0.306,-0.485
MUS81_Q96NY9_74_ILQHFGDGLCR (UniProt Q96NY9),0.0499,-0.0134
MTPAP_Q9NVV4_299_ILSVLGECLDHFGPGCVGVQK (UniProt Q9NVV4),0.106,-0.0477
MRPS7_Q9Y2R9_152_NCEPMIGLVPILK (UniProt Q9Y2R9),0.154,-0.0438
MYL6_P60660_2_CDFTEDQTAEFK (UniProt P60660),-0.113,-0.215
MTERF4_Q7Z6M4_69_SNNYVQEPECR (UniProt Q7Z6M4),-0.323,-0.662
MRPS31_Q92665_356_HFMELVTCGLSK (UniProt Q92665),0.0457,-0.112
MSH6_P52701_579_FFIGQFSDDRHCSR (UniProt P52701),-0.125,-0.00295
MRPS30_Q9NP92_393_NICWGTQSK (UniProt Q9NP92),-0.226,-0.187
MRPS30_Q9NP92_293_TADPCCYGHTQFHLLPDK (UniProt Q9NP92),0.0312,-0.0142
MYBBP1A_Q9BQG0_338_HYGEHVCTAK (UniProt Q9BQG0),0.0441,0.083
MYBPH_Q13203_437_ALSEQGVCTLEIR (UniProt Q13203),-0.0897,0.208
MYB_P10242_78_TDVQCQHR (UniProt P10242),0.0584,0.681
MVD_P53602_108_DGDPLPSSLSCK (UniProt P53602),-0.0088,-0.0367
MTPN_P58546_45_KPLHYAADCGQLEILEFLLLK (UniProt P58546),-0.021,0.0447
MTF2_Q9Y483_133_CGQGYHQLCHTPHIDSSVIDSDEK (UniProt Q9Y483),0.213,0.623
MSH6_P52701_783_QWLCAPLCNHYAINDR (UniProt P52701),-0.128,-0.0134

# A second format for some results above.
Target	probe-labelled cysteine peptide fold change (10 µM)	probe-labelled cysteine peptide fold change (50 µM)
MYBBP1A_Q9BQG0_338_HYGEHVCTAK (UniProt Q9BQG0)	0.0441	0.083
MYBPH_Q13203_437_ALSEQGVCTLEIR (UniProt Q13203)	-0.0897	0.208
MYB_P10242_78_TDVQCQHR (UniProt P10242)	0.0584	0.681
